Results: patent publication US12714702B2, “Compositions and methods for treating or preventing pulmonary hypertension” (priority 2020, dated 2026)

Assays:
[1] = tested on: primary human PASMC; conditions: QA 2.5-10 μM, 3 hours, concentration-dependent
[2] = tested on: SU5416/hypoxia-induced PAH model; conditions: SU5416/hypoxia rats, QA 10 mg/kg once-a-day

CCN(CC)CCCC(C)Nc1c2ccc(Cl)cc2nc2ccc(OC)cc12 (centres unmarked) [QA, quinacrine]
cellular uptake (internalization) [1]: capable of inherently internalizing
toxicity [2]: minimal toxicity
